Results as given in PubChem BioAssay AID743255 (National Center for Advancing Translational Sciences (NCATS), 2014).
In all, about 390,000 compounds went through this assay and about 910 (0.23%) were called active. The shares of active, inactive and inconclusive entries below differ from those in the screen. The call rests on the fitted dose curve; in most records, active means well fitted inhibition curve with a large enough effect; inconclusive means small, poorly fitted or top-dose-only effect; inactive means no such curve, though single readings can be large or run the other way. Where the call is inconclusive, the potency comes from a doubtful curve fit.

Chains of the proteins cited; added tags and fusions are not shown. Lines headed by an entry give the natural chain unless they say otherwise; changes in a name come on top.
UniProt O94782: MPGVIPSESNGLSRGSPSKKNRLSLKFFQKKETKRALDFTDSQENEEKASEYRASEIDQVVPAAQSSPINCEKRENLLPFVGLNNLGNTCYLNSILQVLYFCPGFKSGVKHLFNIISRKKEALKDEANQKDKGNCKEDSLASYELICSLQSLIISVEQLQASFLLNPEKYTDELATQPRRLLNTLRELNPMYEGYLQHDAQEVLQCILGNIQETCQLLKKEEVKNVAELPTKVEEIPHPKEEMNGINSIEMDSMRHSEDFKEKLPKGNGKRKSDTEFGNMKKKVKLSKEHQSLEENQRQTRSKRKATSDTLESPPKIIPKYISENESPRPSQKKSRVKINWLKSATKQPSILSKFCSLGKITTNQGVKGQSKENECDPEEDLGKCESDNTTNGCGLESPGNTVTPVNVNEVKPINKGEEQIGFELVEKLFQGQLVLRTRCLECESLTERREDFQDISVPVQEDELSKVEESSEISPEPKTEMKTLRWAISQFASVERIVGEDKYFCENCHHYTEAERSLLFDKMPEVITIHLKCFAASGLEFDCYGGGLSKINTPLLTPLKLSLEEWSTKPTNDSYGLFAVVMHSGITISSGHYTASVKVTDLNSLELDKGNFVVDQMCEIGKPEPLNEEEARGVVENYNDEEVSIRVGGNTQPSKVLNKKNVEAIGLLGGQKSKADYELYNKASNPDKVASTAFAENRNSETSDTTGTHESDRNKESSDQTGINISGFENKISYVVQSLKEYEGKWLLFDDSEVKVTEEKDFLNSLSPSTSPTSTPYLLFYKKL

Biological target: Ubiquitin carboxyl-terminal hydrolase 1 (Homo sapiens) (UniProt O94782)
Assay: Inhibitors of USP1/UAF1: Primary Screen; further: nearly all actives have a fitted effect of over 60% in size
Settings: recombinant USP1/UAF1, Ub-Rhodamine cleavage fluorescence; series mostly up to 57.1 µM
In short: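 High-throughput fluorogenic screen: 1nM USP1/UAF1 complex, Ub-Rho substrate 150nM final, 50mM HEPES pH 7.8 with 0.5mM EDTA, 0.1 mg/ml BSA, 1mM TCEP and 0.01% Tween-20.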
Potency means the concentration at half of the fitted maximal effect.

SMILES | Potency
C=CCNc1nc(N)c([N+](=O)[O-])c(N2CCCCCC2)n1 | inconclusive: 0.631 µM [inhibitor, full curve, poor fit]
Cc1nc(C(=O)NCc2ccccc2)sc1C1(C)CC(c2cccnc2)=NO1 (centres undefined) | inconclusive: 0.282 µM [inhibitor, full curve, poor fit]
CCc1ccc(NC(=O)N2CCN(C(=O)c3nsc4ccccc34)CC2)cc1 | inconclusive: 3.16 µM [inhibitor, full curve, poor fit]
Cc1cc(O)ccc1Nc1nc(-c2cccnc2)cs1 | inactive
COc1ccccc1NC(=O)CCN1C(=O)c2ccccc2S1(=O)=O | inconclusive: 0.251 µM [inhibitor, full curve]
CCN(CC)C(=O)OCc1c(-c2ccccc2)ncc2ccccc12 | inconclusive: 3.55 µM [inhibitor, full curve]
COc1cc(C#Cc2ccc3cc(C(C)(C)O)oc(=O)c3c2)cc(OC)c1 | inconclusive: 100 µM [inhibitor, partial curve, poor fit]
COc1cc(C)c(Br)cc1S(=O)(=O)N1CCOCC1 | inconclusive: 0.282 µM [inhibitor, full curve]
CCc1nnc(NC(=O)C2CC(=O)N(C3CCCC3)C2)s1 (centres undefined) | inconclusive: 39.8 µM [inhibitor, single point]
COc1ccc(CCNC(=O)Cn2cc(C(=O)c3ccc(F)cc3)c(=O)c3ccc(C)nc32)cc1OC | inconclusive: 5.62 µM [inhibitor, single point]
CC1=CC(=O)C(Sc2ccc(C)cc2)=CC1=O | inconclusive: 3.98 µM [inhibitor, partial curve]
Cc1[nH]c2ccccc2c1C(=O)NS(=O)(=O)Nc1ccccc1 | inconclusive: 7.08 µM [inhibitor, single point]
COc1ccc(CC(=O)Nc2cc(S(=O)(=O)N3CCCCC3)ccc2C)cc1OC | inconclusive: 44.7 µM [inhibitor, partial curve, poor fit]
CCN(CC)S(=O)(=O)c1cccc(NC(=O)C2SC(=Nc3ccc(C)cc3C)C(C(=O)NCC3CCCO3)=C2N)c1 (centres undefined) | inactive
CC(C)(c1ccc(O)c([N+](=O)[O-])c1)c1ccc(O)c([N+](=O)[O-])c1 | inconclusive: 39.8 µM [inhibitor, single point]
CCOCc1[nH]c(=S)[nH]c(=O)c1Cc1ccc(OCC(C)C)cc1 | inconclusive: 7.94 µM [inhibitor, full curve, poor fit]
COc1ccc2c(c1)C=C(C(=O)OCc1cccnc1)CO2 | inconclusive: 56.2 µM [inhibitor, partial curve, poor fit]
O=S(=O)(NC1CCN(Cc2ccccc2)CC1)c1ccc(F)c(F)c1 | inconclusive: 0.251 µM [inhibitor, full curve, poor fit]
COC(=O)c1cc(NC(=O)c2sc3ccccc3c2Cl)cc(C(=O)OC)c1 | inconclusive: 355 µM [inhibitor, partial curve, poor fit]
Cc1cc(Br)cc(C=Nc2ccc(N3CCOCC3)cc2)c1O | inconclusive: 44.7 µM [inhibitor, partial curve, poor fit]

Structures shown so far that contain four or more nitrogen atoms:
SMILES | Potency
C=CCNc1nc(N)c([N+](=O)[O-])c(N2CCCCCC2)n1 | inconclusive: 0.631 µM [inhibitor, full curve, poor fit]
Cc1nc(C(=O)NCc2ccccc2)sc1C1(C)CC(c2cccnc2)=NO1 (centres undefined) | inconclusive: 0.282 µM [inhibitor, full curve, poor fit]
CCc1ccc(NC(=O)N2CCN(C(=O)c3nsc4ccccc34)CC2)cc1 | inconclusive: 3.16 µM [inhibitor, full curve, poor fit]
CCc1nnc(NC(=O)C2CC(=O)N(C3CCCC3)C2)s1 (centres undefined) | inconclusive: 39.8 µM [inhibitor, single point]
CCN(CC)S(=O)(=O)c1cccc(NC(=O)C2SC(=Nc3ccc(C)cc3C)C(C(=O)NCC3CCCO3)=C2N)c1 (centres undefined) | inactive

The list goes on:

SMILES | Potency
Cc1cccc(N2CCN(c3ncnc4c3nc3n4CCCCC3)CC2C)c1 (centres undefined) | inconclusive: 3.98 µM [inhibitor, full curve, poor fit]
CCc1ccc(NC(=O)N(CCN2CCOCC2)Cc2ccc3c(c2)CCCN3CC)cc1 | inconclusive: 35.5 µM [inhibitor, partial curve]
COc1ccc(CCNC(=O)c2c(-c3ccccc3Cl)noc2C)cc1 | inconclusive: 2.51 µM [inhibitor, full curve, poor fit]
Cn1c(=NC(=O)c2cccc([N+](=O)[O-])c2)sc2ccccc21 | inconclusive: 8.91 µM [inhibitor, partial curve, poor fit]
CC1=NN(c2ccccc2)C(=O)/C1=C\c1c(C)[nH]n(-c2ccccc2)c1=O | inactive
CC(C)N1C(=O)C2C(c3ccccc3O)NC(C)(C(=O)O)C2C1=O (centres undefined) | inconclusive: 0.708 µM [inhibitor, full curve, poor fit]
O=C(NC1CC1)C1=C[C@H](c2ccc(C(F)(F)F)cc2)C[C@H](OCc2ccc(CO)cc2)O1 | inconclusive: 7.08 µM [inhibitor, full curve]
CC(C)NC(=O)C1(N2C(=O)c3ccccc3C2=O)CCCC1 | inconclusive: 6.31 µM [inhibitor, full curve, poor fit]
CCOC(=O)c1c2c(n(C)c1C)C(=O)C(=O)c1ccc(Br)cc1-2 | inconclusive: 0.794 µM [inhibitor, full curve]
O=C(NCCCN1CCOCC1)c1cc(-c2cccc(O)c2)on1 | inconclusive: 8.91 µM [inhibitor, partial curve, poor fit]
CC(=O)c1ccc(NC(=O)c2c(C)nn(-c3ccccc3)c2Cl)cc1 | inconclusive: 5.01 µM [inhibitor, partial curve]
C[C@H](NC(=O)c1nc[nH]c1C(=O)N[C@@H](CCCCNC(=O)OC(C)(C)C)C(=O)OC(C)(C)C)c1ccccc1 | inconclusive: 15.8 µM [inhibitor, partial curve]
COCCOC(=O)c1c(C)oc2ccc(OCc3cc(C(=O)OC)oc3C)cc12 | inconclusive: 10 µM [inhibitor, full curve, poor fit]
COc1ccc([C@H]2CC(=O)C=C(c3cccc(Cl)c3O)C2)cc1OC | inconclusive: 14.1 µM [inhibitor, partial curve]
N=c1oc2ccc3ccccc3c2cc1-c1nnc2n1CCCCC2 | inconclusive: 35.5 µM [inhibitor, single point]
CCCC(=O)Nc1ccc(Cl)c(NC(=O)c2cccnc2)c1 | inconclusive: 0.282 µM [inhibitor, full curve, poor fit]
Cc1cccn2c3c(c(=O)nc12)C(c1ccc(F)cc1)CC(=O)N3 (centres undefined) | inactive
N/C(=N\OC(=O)CSc1ccccc1)c1ccc([N+](=O)[O-])cc1 | inactive
CCc1nnc(NC(=O)c2nc(SC)ncc2Cl)s1 | inconclusive: 0.02 µM [inhibitor, full curve]
